{"source": "PubChem BioAssay AID686937 (Drosophila RNAi Screening Center, 2013)", "aim": "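Genes whose loss weakens secretory pathway function in fly cells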 (primary screen)", "cell system": "Drosophila S2 cells expressing secreted horseradish peroxidase", "reagent": "long dsRNA against Drosophila genes", "timing": "about 5.5 days (5 days dsRNA, then 12 h reporter induction)", "conditions": "reporter expression induced after 5 days of dsRNA, read 12 h later; inducer not stated", "measured": "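After 5 days of dsRNA and 12 h of reporter induction, medium peroxidase read by chemiluminescence and scored as per-plate z-score; higher values mean more reporter released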", "scale": "z-score: higher = more reporter secreted into medium", "note": "In all, the deposit lists about 23,000 reagents; below is an unselected part of those that have a named target and a result. 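Reduced-secretion tags in replicate 1 do not always agree with the z-scores; no criterion for assigning the tags was given.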 Further read-outs or replicates are left out here. The record does not give: the amount of reagent."}
{"Gene": "nmdyn-D6 (GeneID 32396)", "DRSC id": "DRSC20355", "z-score, replicate 1": 0.35}
{"Gene": "eIF2Bgamma (GeneID 36722)", "DRSC id": "DRSC07100", "z-score, replicate 1": -0.17}
{"Gene": "SP2353 (GeneID 36771)", "DRSC id": "DRSC07545", "z-score, replicate 1": 0.62}
{"Gene": "CG15167 (GeneID 35134)", "DRSC id": "DRSC02468", "z-score, replicate 1": 0.16}
{"Gene": "Gfat1 (GeneID 3354921)", "DRSC id": "DRSC21219", "z-score, replicate 1": 0.64}
{"Gene": "Xrcc2 (GeneID 32837)", "DRSC id": "DRSC19984", "z-score, replicate 1": -0.15}
{"Gene": "CG7054 (GeneID 42643)", "DRSC id": "DRSC16185", "z-score, replicate 1": 0.17}
{"Gene": "Dscam2 (GeneID 38788)", "DRSC id": "DRSC08869", "z-score, replicate 1": 0.6}
{"Gene": "Dscam2 (GeneID 38788)", "DRSC id": "DRSC10198", "z-score, replicate 1": 0.33}
{"Gene": "Dscam2 (GeneID 38788)", "DRSC id": "DRSC10285", "z-score, replicate 1": -2.46}
{"Gene": "Dscam2 (GeneID 38788)", "DRSC id": "DRSC11018", "z-score, replicate 1": -0.44}
{"Gene": "Dscam2 (GeneID 38788)", "DRSC id": "DRSC11019", "z-score, replicate 1": 0.29}
{"Gene": "Dscam2 (GeneID 38788)", "DRSC id": "DRSC22526", "z-score, replicate 1": -0.71}
{"Gene": "CG11085 (GeneID 32213)", "DRSC id": "DRSC19374", "z-score, replicate 1": 0.35}
{"Gene": "CG11085 (GeneID 32213)", "DRSC id": "DRSC22832", "z-score, replicate 1": -0.38}

3 of these entries, reformatted:
CG7054 (GeneID 42643) [DRSC16185]
- z-score, replicate 1: 0.17

Dscam2 (GeneID 38788) [DRSC08869]
- z-score, replicate 1: 0.6

Dscam2 (GeneID 38788) [DRSC10198]
- z-score, replicate 1: 0.33

Additional reagents:
{"Gene": "CG5953 (GeneID 34985)", "DRSC id": "DRSC01546", "z-score, replicate 1": 0.09}
{"Gene": "CG5953 (GeneID 34985)", "DRSC id": "DRSC02914", "z-score, replicate 1": -0.28}
{"Gene": "Lim1 (GeneID 31813)", "DRSC id": "DRSC17752", "z-score, replicate 1": 0.4}
{"Gene": "Lim1 (GeneID 31813)", "DRSC id": "DRSC18677", "z-score, replicate 1": -0.1}
{"Gene": "CG14079 (GeneID 40086)", "DRSC id": "DRSC10083", "z-score, replicate 1": 0.15}
{"Gene": "Eig71Ei (GeneID 39710)", "DRSC id": "DRSC11156", "z-score, replicate 1": 0.31}
{"Gene": "RhoGEF2 (GeneID 36915)", "DRSC id": "DRSC07531", "z-score, replicate 1": -0.02}
{"Gene": "CG12898 (GeneID 36096)", "DRSC id": "DRSC06213", "z-score, replicate 1": 0.32}
{"Gene": "lobo (GeneID 4379864)", "DRSC id": "DRSC14662", "z-score, replicate 1": 0.34}
{"Gene": "lobo (GeneID 4379864)", "DRSC id": "DRSC14663", "z-score, replicate 1": 0.12}
{"Gene": "eIF3f2 (GeneID 35547)", "DRSC id": "DRSC04903", "z-score, replicate 1": -0.02}
{"Gene": "CG5274 (GeneID 40257)", "DRSC id": "DRSC11774", "z-score, replicate 1": 0.63}
{"Gene": "t-Grip128 (GeneID 317930)", "DRSC id": "DRSC07853", "z-score, replicate 1": 0.17}
{"Gene": "CG1571 (GeneID 31725)", "DRSC id": "DRSC18068", "z-score, replicate 1": 0.58}
{"Gene": "CG18420 (GeneID 2768924)", "DRSC id": "DRSC01954", "z-score, replicate 1": 0.41}
{"Gene": "Dtwd2 (GeneID 40873)", "DRSC id": "DRSC12501", "z-score, replicate 1": 0.4}
{"Gene": "Adck1 (GeneID 37938)", "DRSC id": "DRSC04394", "z-score, replicate 1": 0.24}
{"Gene": "CG17187 (GeneID 41351)", "DRSC id": "DRSC15181", "z-score, replicate 1": -0.23}
{"Gene": "Rel (GeneID 41087)", "DRSC id": "DRSC16819", "z-score, replicate 1": -0.26}
{"Gene": "CG11898 (GeneID 43451)", "DRSC id": "DRSC14432", "z-score, replicate 1": -0.04}
{"Gene": "cic (GeneID 53560)", "DRSC id": "DRSC14276", "z-score, replicate 1": -2.02}
{"Gene": "cic (GeneID 53560)", "DRSC id": "DRSC15708", "z-score, replicate 1": -0.04}
{"Gene": "cic (GeneID 53560)", "DRSC id": "DRSC16918", "z-score, replicate 1": 0.3}
{"Gene": "cic (GeneID 53560)", "DRSC id": "DRSC21243", "z-score, replicate 1": 0.32}
{"Gene": "Smyd4-1 (GeneID 35985)", "DRSC id": "DRSC06785", "z-score, replicate 1": 0.5}
